Some of the results follow. The data scatter; read single values as rough.
Compound: ClCC(=O)N[C@@H]1CCCc2ccccc12
Experiment: log2 mean competition ratio of IA-DTB cysteine labelling (DMSO/compound) (log2 ratio); higher = stronger cysteine engagement by compound
Settings: 50 µM; treatment time: 4 h; cell line lysate: HEK293T
Procedure: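 IA-DTB competitive cysteine chemoproteomics in HEK293T RIPA lysate. Lysates were treated with compound 29 or 30 at 50 or 200 µM for 4 h, then IA-DTB (500 µM, 1 h), trypsin-digested, NeutrAvidin-enriched and analysed by diaPASEF. Competition ratio = intensity DMSO / intensity compound (n=4 treated, n=64 DMSO); binding: mean log2 CR ≥ 1 and p ≤ 0.05 plus QC filters. Target is the cysteine site.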

Sequences of proteins named here, by UniProt entry; tags and fusion partners are left off. A change or cut given only in a name is not applied to a line headed by its entry. Residues count along the entry.
UniProt Q96JH7: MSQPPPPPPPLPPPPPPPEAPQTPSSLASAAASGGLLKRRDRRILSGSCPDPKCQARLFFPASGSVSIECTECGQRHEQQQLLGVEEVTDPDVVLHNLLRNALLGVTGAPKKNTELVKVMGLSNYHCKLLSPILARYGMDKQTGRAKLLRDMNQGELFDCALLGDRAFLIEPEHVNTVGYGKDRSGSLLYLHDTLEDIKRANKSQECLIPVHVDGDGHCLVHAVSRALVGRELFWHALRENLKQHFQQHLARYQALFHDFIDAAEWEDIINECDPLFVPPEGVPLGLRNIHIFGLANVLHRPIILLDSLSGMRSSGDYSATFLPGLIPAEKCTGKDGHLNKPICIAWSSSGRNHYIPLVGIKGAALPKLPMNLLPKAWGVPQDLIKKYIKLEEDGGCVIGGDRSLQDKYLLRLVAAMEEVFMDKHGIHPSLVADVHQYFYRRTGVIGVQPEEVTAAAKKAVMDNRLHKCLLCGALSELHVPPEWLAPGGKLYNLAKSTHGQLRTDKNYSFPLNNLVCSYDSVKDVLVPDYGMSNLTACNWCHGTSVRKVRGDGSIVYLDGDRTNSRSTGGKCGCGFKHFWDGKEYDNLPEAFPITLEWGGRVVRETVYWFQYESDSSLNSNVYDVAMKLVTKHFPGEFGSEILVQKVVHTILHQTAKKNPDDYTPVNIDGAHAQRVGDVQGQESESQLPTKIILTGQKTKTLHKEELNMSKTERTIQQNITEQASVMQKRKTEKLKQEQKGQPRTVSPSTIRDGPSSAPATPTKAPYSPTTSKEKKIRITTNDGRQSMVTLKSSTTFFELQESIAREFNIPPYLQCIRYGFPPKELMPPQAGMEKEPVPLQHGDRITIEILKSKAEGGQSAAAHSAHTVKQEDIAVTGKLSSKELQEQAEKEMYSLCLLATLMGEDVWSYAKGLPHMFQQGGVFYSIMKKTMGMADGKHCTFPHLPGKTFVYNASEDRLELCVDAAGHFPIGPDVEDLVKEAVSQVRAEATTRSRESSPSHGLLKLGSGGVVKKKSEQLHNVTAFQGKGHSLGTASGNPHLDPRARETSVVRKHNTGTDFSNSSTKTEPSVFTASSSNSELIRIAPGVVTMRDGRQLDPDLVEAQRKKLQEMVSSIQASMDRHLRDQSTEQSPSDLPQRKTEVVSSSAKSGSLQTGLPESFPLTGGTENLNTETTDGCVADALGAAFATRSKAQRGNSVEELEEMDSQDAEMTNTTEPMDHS
UniProt O94782, 54-73: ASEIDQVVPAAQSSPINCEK
UniProt Q70CQ2: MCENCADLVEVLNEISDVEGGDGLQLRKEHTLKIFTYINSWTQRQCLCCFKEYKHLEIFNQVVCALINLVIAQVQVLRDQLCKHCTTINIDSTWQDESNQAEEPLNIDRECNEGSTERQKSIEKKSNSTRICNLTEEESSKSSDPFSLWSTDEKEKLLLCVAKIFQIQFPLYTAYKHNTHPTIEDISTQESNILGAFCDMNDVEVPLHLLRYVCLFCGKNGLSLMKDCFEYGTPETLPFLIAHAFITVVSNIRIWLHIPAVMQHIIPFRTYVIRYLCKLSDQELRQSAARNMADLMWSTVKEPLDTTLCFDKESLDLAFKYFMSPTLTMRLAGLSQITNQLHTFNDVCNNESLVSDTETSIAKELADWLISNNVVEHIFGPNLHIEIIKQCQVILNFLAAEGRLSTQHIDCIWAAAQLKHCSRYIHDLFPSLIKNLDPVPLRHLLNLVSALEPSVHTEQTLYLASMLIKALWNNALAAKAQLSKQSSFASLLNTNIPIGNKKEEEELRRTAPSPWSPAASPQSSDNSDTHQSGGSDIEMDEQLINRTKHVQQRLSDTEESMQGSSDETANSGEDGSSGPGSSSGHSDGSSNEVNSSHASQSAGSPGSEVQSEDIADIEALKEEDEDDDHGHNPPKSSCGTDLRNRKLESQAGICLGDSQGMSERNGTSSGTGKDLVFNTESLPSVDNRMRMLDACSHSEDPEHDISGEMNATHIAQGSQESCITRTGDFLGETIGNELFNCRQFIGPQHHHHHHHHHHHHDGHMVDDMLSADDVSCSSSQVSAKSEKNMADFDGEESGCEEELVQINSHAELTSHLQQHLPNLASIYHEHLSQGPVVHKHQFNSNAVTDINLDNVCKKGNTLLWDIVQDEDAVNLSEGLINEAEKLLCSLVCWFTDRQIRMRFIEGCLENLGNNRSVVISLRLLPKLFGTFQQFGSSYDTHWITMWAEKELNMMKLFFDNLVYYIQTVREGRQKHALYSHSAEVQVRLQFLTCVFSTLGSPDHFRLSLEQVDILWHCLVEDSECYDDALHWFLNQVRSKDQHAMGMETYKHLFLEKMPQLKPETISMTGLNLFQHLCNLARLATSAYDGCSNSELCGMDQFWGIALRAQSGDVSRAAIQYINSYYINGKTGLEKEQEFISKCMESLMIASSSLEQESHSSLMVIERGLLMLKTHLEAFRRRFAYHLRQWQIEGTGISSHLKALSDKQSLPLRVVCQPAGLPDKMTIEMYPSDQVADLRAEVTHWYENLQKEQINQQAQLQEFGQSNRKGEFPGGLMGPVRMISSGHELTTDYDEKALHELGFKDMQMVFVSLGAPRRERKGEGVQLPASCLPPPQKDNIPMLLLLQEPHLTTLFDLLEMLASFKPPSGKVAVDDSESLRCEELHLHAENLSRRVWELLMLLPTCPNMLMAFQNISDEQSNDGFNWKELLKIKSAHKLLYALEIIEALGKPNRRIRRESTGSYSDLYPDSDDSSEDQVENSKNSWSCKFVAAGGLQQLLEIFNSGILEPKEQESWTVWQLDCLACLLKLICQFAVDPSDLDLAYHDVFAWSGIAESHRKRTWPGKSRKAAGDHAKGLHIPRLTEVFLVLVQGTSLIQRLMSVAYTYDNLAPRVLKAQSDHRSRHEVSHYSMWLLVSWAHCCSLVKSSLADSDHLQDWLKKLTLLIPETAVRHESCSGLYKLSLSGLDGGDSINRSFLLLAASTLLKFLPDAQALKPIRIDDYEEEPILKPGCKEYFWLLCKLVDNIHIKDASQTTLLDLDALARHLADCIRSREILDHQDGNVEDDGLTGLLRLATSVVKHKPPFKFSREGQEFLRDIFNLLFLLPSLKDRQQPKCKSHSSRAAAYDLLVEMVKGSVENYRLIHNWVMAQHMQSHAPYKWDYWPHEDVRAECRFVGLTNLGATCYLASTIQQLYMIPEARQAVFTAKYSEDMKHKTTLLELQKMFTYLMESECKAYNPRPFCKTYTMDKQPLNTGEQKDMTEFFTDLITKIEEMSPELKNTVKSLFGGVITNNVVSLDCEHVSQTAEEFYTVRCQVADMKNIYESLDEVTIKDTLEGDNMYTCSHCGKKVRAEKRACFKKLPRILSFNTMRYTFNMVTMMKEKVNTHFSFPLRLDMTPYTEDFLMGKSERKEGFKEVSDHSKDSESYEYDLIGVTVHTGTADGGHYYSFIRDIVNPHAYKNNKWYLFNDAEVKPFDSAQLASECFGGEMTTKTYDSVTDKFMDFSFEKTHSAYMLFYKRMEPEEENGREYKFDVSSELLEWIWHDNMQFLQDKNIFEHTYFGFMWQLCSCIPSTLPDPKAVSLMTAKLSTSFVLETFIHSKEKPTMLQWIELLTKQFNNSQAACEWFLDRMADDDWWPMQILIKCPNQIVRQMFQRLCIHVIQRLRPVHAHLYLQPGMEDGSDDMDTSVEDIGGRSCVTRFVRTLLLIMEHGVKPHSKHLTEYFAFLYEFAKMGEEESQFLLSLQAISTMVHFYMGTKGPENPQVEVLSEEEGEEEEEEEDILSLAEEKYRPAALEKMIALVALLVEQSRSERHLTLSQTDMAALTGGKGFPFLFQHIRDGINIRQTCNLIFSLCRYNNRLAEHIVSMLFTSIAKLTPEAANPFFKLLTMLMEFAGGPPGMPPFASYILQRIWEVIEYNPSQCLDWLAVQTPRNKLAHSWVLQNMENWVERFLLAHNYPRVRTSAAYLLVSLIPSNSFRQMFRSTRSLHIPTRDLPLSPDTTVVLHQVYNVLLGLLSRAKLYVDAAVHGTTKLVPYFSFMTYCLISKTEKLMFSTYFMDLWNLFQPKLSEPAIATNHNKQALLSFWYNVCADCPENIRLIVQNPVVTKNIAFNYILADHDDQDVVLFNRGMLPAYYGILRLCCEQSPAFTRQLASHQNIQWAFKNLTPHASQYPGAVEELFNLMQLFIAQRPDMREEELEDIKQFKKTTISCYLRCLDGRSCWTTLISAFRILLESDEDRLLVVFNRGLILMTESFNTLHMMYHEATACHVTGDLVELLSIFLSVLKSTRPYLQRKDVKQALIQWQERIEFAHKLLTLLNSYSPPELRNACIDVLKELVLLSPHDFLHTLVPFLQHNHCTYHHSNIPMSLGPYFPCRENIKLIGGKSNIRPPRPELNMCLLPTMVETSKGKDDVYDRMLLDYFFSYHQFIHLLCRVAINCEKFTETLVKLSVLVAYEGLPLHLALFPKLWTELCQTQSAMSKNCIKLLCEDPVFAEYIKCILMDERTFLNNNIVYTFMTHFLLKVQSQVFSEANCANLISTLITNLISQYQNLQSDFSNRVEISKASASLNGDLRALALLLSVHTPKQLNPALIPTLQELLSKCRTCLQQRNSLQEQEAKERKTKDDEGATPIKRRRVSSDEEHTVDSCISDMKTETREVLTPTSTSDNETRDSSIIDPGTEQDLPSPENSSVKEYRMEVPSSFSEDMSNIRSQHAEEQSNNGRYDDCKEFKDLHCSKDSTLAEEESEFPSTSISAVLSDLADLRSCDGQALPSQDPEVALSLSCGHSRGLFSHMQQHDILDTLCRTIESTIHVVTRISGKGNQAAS
UniProt Q9UK41: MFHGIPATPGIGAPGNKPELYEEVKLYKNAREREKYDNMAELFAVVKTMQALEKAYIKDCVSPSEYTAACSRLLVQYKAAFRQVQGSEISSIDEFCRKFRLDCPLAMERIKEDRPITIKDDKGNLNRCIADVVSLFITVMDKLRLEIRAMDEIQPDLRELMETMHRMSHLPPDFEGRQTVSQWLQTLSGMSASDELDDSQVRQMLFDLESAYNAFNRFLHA
UniProt Q9BRT2: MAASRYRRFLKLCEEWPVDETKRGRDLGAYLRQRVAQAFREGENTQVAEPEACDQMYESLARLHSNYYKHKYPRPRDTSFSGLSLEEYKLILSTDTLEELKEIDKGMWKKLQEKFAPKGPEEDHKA
UniProt Q92900: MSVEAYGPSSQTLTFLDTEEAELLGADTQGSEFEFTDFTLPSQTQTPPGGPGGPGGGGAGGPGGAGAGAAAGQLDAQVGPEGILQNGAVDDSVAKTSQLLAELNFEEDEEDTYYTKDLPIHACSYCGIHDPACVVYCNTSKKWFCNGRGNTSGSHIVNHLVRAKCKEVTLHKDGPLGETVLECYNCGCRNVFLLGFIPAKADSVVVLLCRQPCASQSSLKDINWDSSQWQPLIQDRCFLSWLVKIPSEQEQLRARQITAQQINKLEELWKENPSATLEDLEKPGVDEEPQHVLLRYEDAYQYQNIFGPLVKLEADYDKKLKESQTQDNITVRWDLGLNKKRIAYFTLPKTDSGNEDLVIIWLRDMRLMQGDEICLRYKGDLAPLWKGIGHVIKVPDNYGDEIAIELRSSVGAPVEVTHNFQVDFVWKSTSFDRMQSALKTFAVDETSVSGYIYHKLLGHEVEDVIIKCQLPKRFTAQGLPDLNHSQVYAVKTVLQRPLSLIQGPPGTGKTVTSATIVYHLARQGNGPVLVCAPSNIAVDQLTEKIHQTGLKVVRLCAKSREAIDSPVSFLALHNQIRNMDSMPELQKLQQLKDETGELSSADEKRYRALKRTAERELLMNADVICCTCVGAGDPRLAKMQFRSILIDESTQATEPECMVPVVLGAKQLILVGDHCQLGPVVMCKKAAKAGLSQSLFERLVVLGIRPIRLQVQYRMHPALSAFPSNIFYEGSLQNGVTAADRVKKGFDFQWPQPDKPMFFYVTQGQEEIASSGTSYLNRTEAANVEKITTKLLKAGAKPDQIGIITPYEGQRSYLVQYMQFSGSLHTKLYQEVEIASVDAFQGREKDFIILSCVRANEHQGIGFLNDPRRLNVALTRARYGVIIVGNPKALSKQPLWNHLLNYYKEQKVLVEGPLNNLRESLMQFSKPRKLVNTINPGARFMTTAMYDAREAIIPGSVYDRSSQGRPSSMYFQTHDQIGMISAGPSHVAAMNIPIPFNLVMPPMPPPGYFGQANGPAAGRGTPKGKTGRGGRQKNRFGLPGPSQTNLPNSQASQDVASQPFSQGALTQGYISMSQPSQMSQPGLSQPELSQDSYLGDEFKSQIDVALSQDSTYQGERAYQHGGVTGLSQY
UniProt O95071, 605-632: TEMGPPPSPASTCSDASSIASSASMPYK

| Target | log2 mean competition ratio |
| --- | --- |
| USP9X C540 (UniProt Q93008) | 0.00968 |
| VCPIP1 C397 (UniProt Q96JH7) | -0.0962 |
| USP1 C71 (UniProt O94782) | -0.373 |
| URGCP C905 (UniProt Q8TCY9) | 0.0187 |
| VCAN C3296 | 0.126 |
| VPS13C C2184 (UniProt Q709C8) | -0.0848 |
| USP28 C733 (UniProt Q96RU2) | -0.0345 |
| USP34 C1380 (UniProt Q70CQ2) | 0.0685 |
| VPS28 C103 (UniProt Q9UK41) | 0.326 |
| USP34 C1674 (UniProt Q70CQ2) | -0.0646 |
| VPS11 C128 (UniProt Q9H270) | -0.199 |
| URI1 C167 (UniProt O94763) | -0.401 |
| UNK C45 (UniProt Q9C0B0) | 0.0174 |
| USP54 C88 (UniProt Q70EL1) | 0.0884 |
| USP14 C257 (UniProt P54578) | -0.133 |
| USP36 C302 (UniProt Q9P275) | -0.192 |
| UQCC2 C13 (UniProt Q9BRT2) | 0.201 |
| UPF1 C165 (UniProt Q92900) | 0.495 |
| UPF1 C852 (UniProt Q92900) | 0.123 |
| UBR5 C617 (UniProt O95071) | -0.0425 |

Same assay, conditions: 200 µM; treatment time: 4 h; cell line lysate: HEK293T

| Target | log2 mean competition ratio |
| --- | --- |
| USP9X C540 (UniProt Q93008) | -0.108 |
| VCPIP1 C397 (UniProt Q96JH7) | 0.0968 |
| USP1 C71 (UniProt O94782) | 0.00964 |
| URGCP C905 (UniProt Q8TCY9) | -0.361 |
| VCAN C3296 | -0.00579 |
| VPS13C C2184 (UniProt Q709C8) | -0.0956 |
| USP28 C733 (UniProt Q96RU2) | -0.0899 |
| USP34 C1380 (UniProt Q70CQ2) | 0.131 |
| VPS28 C103 (UniProt Q9UK41) | 0.231 |
| USP34 C1674 (UniProt Q70CQ2) | 0.0734 |
| VPS11 C128 (UniProt Q9H270) | 0.0715 |
| URI1 C167 (UniProt O94763) | -0.143 |
| UNK C45 (UniProt Q9C0B0) | 0.467 |
| USP54 C88 (UniProt Q70EL1) | 0.301 |
| USP14 C257 (UniProt P54578) | -0.116 |
| USP36 C302 (UniProt Q9P275) | 0.111 |
| UQCC2 C13 (UniProt Q9BRT2) | 0.0415 |
| UPF1 C165 (UniProt Q92900) | -0.168 |
| UPF1 C852 (UniProt Q92900) | 0.106 |
| UBR5 C617 (UniProt O95071) | -0.381 |

— the supplement of paper PMC11732987, “Enantioselective OTUD7B fragment discovery through chemoproteomics screening and high-throughput optimisation” (Communications Chemistry, 2025)
